From article PMC10096123, “14-Substituted Diquinothiazines as a New Group of Anticancer Agents” (Molecules, 2023)

Test system: H1299 cells
Assay: 72-h MTT viability assay, H1299
Assay type: cell-based, human
Settings: selectivity index, apparently IC50 BEAS-2B / IC50 H1299; definition not given
Description: (§1) The IC50 for cell viability was described with a dose of the drug, with a 50% reduction in the whole population, when compared to the untreated controls. The obtained results allow for a comparison of different compounds, using the same or different targeted cell lines. Cell survival fractions (SF), followed by the MTT 72-h viability assay for the HCT116 and SH-5YSY cells, are presented in the Supplementary File (Figure S1).
(§2) For cytological studies, human cancer cell lines were chosen, with special emphasis on the colorectal, HCT116, and neuroblastoma SH-5YSY cell lines, as well as lung normal epithelial BEAS-2B and cancer H1299 and A549 cancer cell lines (all obtained from the ATTC collection; Manassas, VA, USA). The cells were harvested under the standard conditions in incubator (5% CO2, 37 °C and 60% humidity; Panasonic model MCO-19 AIC). Cells were cultured in T75 mL sterile bottles (Sartedt), using DMEM-F12 medium (Merck, Poznań, Poland) supplemented with 10% of Fetal Bovine Serum (EURx, Gdańsk, Poland). During the experimental procedure, each cell line wasn’t more than 60–80% confluenced, no older than maximal number of passages 30. For adherent cell passages, the enzyme trypsin working solution, prepared in sodium phosphate buffer saline (PBS, pH = 7.4; PAN-Biotech Gmbh, Aidenbach, Germany), was used. The tested compounds were prepared as […] stocks in 100% DMSO (Merck, Poznań, Poland), and were stored at −20 °C. Before use in cytological studies, the working solution of each compound was prepared directly in complete DMEM-F12 medium. A positive-control, anticancer drug, etoposide (Merck, Poznań, Poland), was dissolved and prepared as solutions with doses of 20, 10, 5, 2.5, 1.25, 0.63 µM (0 µM for control, untreated cells in DMEM-F12 without any tested compound additions), respectively.
(§3) HCT116 and SH-5YSY cells collected after trypsinization were counted under the Bürker’s chamber, and 2000 or 5000 cells were seeded on each well of the 96-well-format sterile plate (Sarstedt, Nümbrecht, Germany), in 100 µL of complete DMEM-F12 medium, respectively. Twenty-four hours before compound addition, the cells were monitored directly on plates; only well-attached cells were used for treatments with background controls (DMSO with final maximal concentration of 1%) and untreated controls. The normal lung (BEAS-2B) and cancer (H1299 and […]) cell lines were cultured and prepared for viability MTT assay in similar way. To treat wells, 100 µL of tested compounds in fresh medium were added at concentration range of 100, 50, 25, 12.5, 6.25, 3.13 µM (0 µM for control, untreated cells in DMEM-F12 without any tested compound additions). An etoposide as a positive control, as anticancer drug, was prepared in similar way. Followed by 72 h of incubation, the viability assay was performed according to the producer protocol (Promega, Madison, WI, USA), where the medium and compounds were removed and cells were washed with PBS solution. A yellow tetrazolium salt (3-(4,5-dimethylthiazol-2-yl)-2,5-diphenyltetrazolium bromide solution (0.5 mg/mL) in serum and phenol red-free DMEM (Merck, Poznań, Poland) was added to each well on plates at a volume of 50 µL for 2–3 h of darkness, at 37 °C incubation. The purple formazan crystals were produced only by the viable cells, containing NAD (P)H-dependent oxidoreductase enzymes, which reduce the MTT. The crystals were dissolved in acidic (0.04 M HCl) 2-propanolol solution (Merck, Poznań, Poland) after addition of 75 µL of dissolving mixture to each well on plates for 5–10 min in darkness and at room-temperature (RT) incubation. The absorption at 570 nm was measured directly using multiplate reader (Epoch, BioTek, Winooski, VT, USA). Each time, the biological experiments were repeated three times.
(§4) Obtained absorbance was analyzed for proliferation and survival fraction (SF) assessments, where tested samples were compared to the untreated controls (100%). […]

SMILES | SI (H1299)
c1ccc2c3c(cnc2c1)Sc1cnc2ccccc2c1N3CCN1CCCC1 [Compound 2a, 14-(pyrrolidinylethyl)diquinothiazine] | 10.4
O=C1CCCN1CCCN1c2c(cnc3ccccc23)Sc2cnc3ccccc3c21 [Compound 2b, 14-(pyrrolidinonylpropyl)diquinothiazine] | 15.8
c1ccc2c3c(cnc2c1)Sc1cnc2ccccc2c1N3CCN1CCOCC1 [Compound 2d] | 13.2
c1ccc2c3c(cnc2c1)Sc1cnc2ccccc2c1N3CCN1CCNCC1 [Compound 2e, 14-(piperazinyloethyl)dichinotiazyny] | 3.8
CCN(CC)CCN1c2c(cnc3ccccc23)Sc2cnc3ccccc3c21 [Compound 2f] | 5.5
FC(F)(F)c1ccc(N2c3c(cnc4ccccc34)Sc3cnc4ccccc4c32)cc1 [Compound 3b, 14-(4-trifluoromethylphenyl)diquinothiazine] | 5.9
CSc1ccc(N2c3c(cnc4ccccc34)Sc3cnc4ccccc4c32)cc1 [Compound 3c, 14-(methylthiophenyl)diquinothiazine] | 43.1
CC(=O)NCCN1c2c(cnc3ccccc23)Sc2cnc3ccccc3c21 [Compound 5a, 14-acetylaminoethyldiquinothiazine] | 4.1
CC(=O)NCCCN1c2c(cnc3ccccc23)Sc2cnc3ccccc3c21 [Compound 5b, 14-acetylaminopropyldiquinothiazine] | 3.7
COc1cc([C@@H]2c3cc4c(cc3[C@@H](O[C@@H]3O[C@@H]5CO[C@@H](C)O[C@H]5[C@H](O)[C@H]3O)[C@H]3COC(=O)[C@H]23)OCO4)cc(OC)c1O [etoposide, reference compound] | 0.005

Test system: HCT116 cells
Assay: 72-h MTT viability assay, HCT116
Assay type: cell-based, human
Settings: selectivity index, apparently IC50 BEAS-2B / IC50 HCT116; definition not given
Description: as §1, §2, §3, §4

SMILES | SI (HCT116)
c1ccc2c3c(cnc2c1)Sc1cnc2ccccc2c1N3CCN1CCCC1 [Compound 2a, 14-(pyrrolidinylethyl)diquinothiazine] | 7.6
O=C1CCCN1CCCN1c2c(cnc3ccccc23)Sc2cnc3ccccc3c21 [Compound 2b, 14-(pyrrolidinonylpropyl)diquinothiazine] | 8.9
c1ccc2c3c(cnc2c1)Sc1cnc2ccccc2c1N3CCN1CCOCC1 [Compound 2d] | 5
c1ccc2c3c(cnc2c1)Sc1cnc2ccccc2c1N3CCN1CCNCC1 [Compound 2e, 14-(piperazinyloethyl)dichinotiazyny] | 2.5
CCN(CC)CCN1c2c(cnc3ccccc23)Sc2cnc3ccccc3c21 [Compound 2f] | 7.2
FC(F)(F)c1ccc(N2c3c(cnc4ccccc34)Sc3cnc4ccccc4c32)cc1 [Compound 3b, 14-(4-trifluoromethylphenyl)diquinothiazine] | 5.0
CSc1ccc(N2c3c(cnc4ccccc34)Sc3cnc4ccccc4c32)cc1 [Compound 3c, 14-(methylthiophenyl)diquinothiazine] | 30
CC(=O)NCCN1c2c(cnc3ccccc23)Sc2cnc3ccccc3c21 [Compound 5a, 14-acetylaminoethyldiquinothiazine] | 4.1
CC(=O)NCCCN1c2c(cnc3ccccc23)Sc2cnc3ccccc3c21 [Compound 5b, 14-acetylaminopropyldiquinothiazine] | 4.9
COc1cc([C@@H]2c3cc4c(cc3[C@@H](O[C@@H]3O[C@@H]5CO[C@@H](C)O[C@H]5[C@H](O)[C@H]3O)[C@H]3COC(=O)[C@H]23)OCO4)cc(OC)c1O [etoposide, reference compound] | 0.0004

Test system: A549 cells
Assay: 72-h MTT viability assay, A549
Assay type: cell-based, human
Settings: selectivity index, apparently IC50 BEAS-2B / IC50 A549; definition not given
Description: as §1, §2, §3, §4

SMILES | SI (A549)
c1ccc2c3c(cnc2c1)Sc1cnc2ccccc2c1N3CCN1CCCC1 [Compound 2a, 14-(pyrrolidinylethyl)diquinothiazine] | 6.3
O=C1CCCN1CCCN1c2c(cnc3ccccc23)Sc2cnc3ccccc3c21 [Compound 2b, 14-(pyrrolidinonylpropyl)diquinothiazine] | 6.7
c1ccc2c3c(cnc2c1)Sc1cnc2ccccc2c1N3CCN1CCOCC1 [Compound 2d] | 5.7
c1ccc2c3c(cnc2c1)Sc1cnc2ccccc2c1N3CCN1CCNCC1 [Compound 2e, 14-(piperazinyloethyl)dichinotiazyny] | 2.6
CCN(CC)CCN1c2c(cnc3ccccc23)Sc2cnc3ccccc3c21 [Compound 2f] | 4.4
FC(F)(F)c1ccc(N2c3c(cnc4ccccc34)Sc3cnc4ccccc4c32)cc1 [Compound 3b, 14-(4-trifluoromethylphenyl)diquinothiazine] | 2.0
CSc1ccc(N2c3c(cnc4ccccc34)Sc3cnc4ccccc4c32)cc1 [Compound 3c, 14-(methylthiophenyl)diquinothiazine] | 4.0
CC(=O)NCCN1c2c(cnc3ccccc23)Sc2cnc3ccccc3c21 [Compound 5a, 14-acetylaminoethyldiquinothiazine] | 1.5
CC(=O)NCCCN1c2c(cnc3ccccc23)Sc2cnc3ccccc3c21 [Compound 5b, 14-acetylaminopropyldiquinothiazine] | 1.5
COc1cc([C@@H]2c3cc4c(cc3[C@@H](O[C@@H]3O[C@@H]5CO[C@@H](C)O[C@H]5[C@H](O)[C@H]3O)[C@H]3COC(=O)[C@H]23)OCO4)cc(OC)c1O [etoposide, reference compound] | 0.001

Test system: SH-SY5Y cells
Assay: 72-h MTT viability assay, SH-SY5Y
Assay type: cell-based, human
Settings: selectivity index, apparently IC50 BEAS-2B / IC50 SH-SY5Y; definition not given
Description: as §1, §2, §3, §4

SMILES | SI (SH-SY5Y)
c1ccc2c3c(cnc2c1)Sc1cnc2ccccc2c1N3CCN1CCCC1 [Compound 2a, 14-(pyrrolidinylethyl)diquinothiazine] | 13
O=C1CCCN1CCCN1c2c(cnc3ccccc23)Sc2cnc3ccccc3c21 [Compound 2b, 14-(pyrrolidinonylpropyl)diquinothiazine] | 10.8
c1ccc2c3c(cnc2c1)Sc1cnc2ccccc2c1N3CCN1CCOCC1 [Compound 2d] | 8.7
c1ccc2c3c(cnc2c1)Sc1cnc2ccccc2c1N3CCN1CCNCC1 [Compound 2e, 14-(piperazinyloethyl)dichinotiazyny] | 5.4
CC(=O)NCCN1c2c(cnc3ccccc23)Sc2cnc3ccccc3c21 [Compound 5a, 14-acetylaminoethyldiquinothiazine] | 4.4
CC(=O)NCCCN1c2c(cnc3ccccc23)Sc2cnc3ccccc3c21 [Compound 5b, 14-acetylaminopropyldiquinothiazine] | 4.1
COc1cc([C@@H]2c3cc4c(cc3[C@@H](O[C@@H]3O[C@@H]5CO[C@@H](C)O[C@H]5[C@H](O)[C@H]3O)[C@H]3COC(=O)[C@H]23)OCO4)cc(OC)c1O [etoposide, reference compound] | 0.001
